# PubChem BioAssay (NCATS)
# Several values for one entry are separate records, joined by “and”; a condition that tells them apart may be missing. Equal values may be shown once. Inconclusive results, whose numbers are uncertain, are shown with a selection of clear calls. A potency beside an inconclusive call is a rough fit, not a confirmed value. Activity calls are given as the source filed them. The call rests on the fitted dose curve; in most records, active means well fitted cell-killing curve with a large enough effect; inconclusive means small, poorly fitted or top-dose-only effect; inactive means no such curve, though single readings can be large or run the other way.
# Assay: qHTS of pediatric cancer cell lines to identify multiple opportunities for drug repurposing: Primary screen for Rh41 cells (AID 1347108); further: nearly all actives have a fitted effect of over 70% in size
# Settings: Rh41 rhabdomyosarcoma viability, CellTiter-Glo luminescence, 48 h; series mostly up to 46 µM
# Method in brief: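 Cells seeded at 500-1,000 cells/well in growth media, rested 5 hours at 37 degrees C, 5% CO2, then dosed; MIPE compounds at 11-point (from 0.78 nM) and NPC at 8-point (from 0.59 nM) final concentrations. Viability by CellTiter-Glo luminescence after 48 hours.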
# Potency means the concentration at half of the fitted maximal effect.
row,Compound,Potency
1,OC[C@@H](O)[C@H](O)[C@H](O)[C@@H](O)CO,inactive
2,NC(N)=NC(N)=NCCc1ccccc1,"inconclusive: 11.9 µM [cytotoxic, partial curve] and inconclusive: 5.26 µM [cytotoxic, partial curve]"
3,CN(C)CCCN1c2ccccc2Sc2ccc(Cl)cc21,"inconclusive: 16.8 µM [cytotoxic, single point]"
4,Oc1c(I)cc(Cl)c2cccnc12,"inconclusive: 18.8 µM [cytotoxic, single point]"
5,Cc1c(N(C)CS(=O)(=O)O)c(=O)n(-c2ccccc2)n1C,inactive
6,CC(C=CC=C(C)C=CC1=C(C)CCCC1(C)C)=CC=CC=C(C)C=CC=C(C)C=CC1=C(C)CCCC1(C)C,"inconclusive: 18.7 µM [cytotoxic, partial curve]"
7,Cc1cc([C@@H](C)Nc2ccccc2C(=O)O)c2nc(N3CCOCC3)cc(=O)n2c1,active: 8.55 µM
8,Cc1ccc(C(C)C)cc2c(C)ccc1-2,inactive
9,CN1C(C(=O)Nc2ccccn2)=C(O)c2sc(Cl)cc2S1(=O)=O,"inconclusive: 16.6 µM [cytotoxic, partial curve]"
10,CCOc1cc(C=C2C(=O)N(c3ccccc3)N=C2C)cc(Cl)c1OCC(=O)OC,"inconclusive: 4.69 µM [cytotoxic, full curve]"
11,CCc1cccc(CC)c1NC(=O)N1Cc2[nH]nc(NC(=O)c3ccc(N4CCN(C)CC4)cc3)c2C1,"inconclusive: 1.87 µM [cytotoxic, full curve]"
12,CNCCC(Oc1ccc(C(F)(F)F)cc1)c1ccccc1 (centres undefined),"inconclusive: 21.1 µM [cytotoxic, single point]"
13,Nc1ncn([C@@H]2O[C@H](CO)[C@@H](O)[C@H]2O)c(=O)n1,"inconclusive: 15 µM [cytotoxic, partial curve]"
14,COc1cc2c(cc1OC)-c1cc(=Nc3c(C)cc(C)cc3C)n(C)c(=O)n1CC2,"inconclusive: 13.3 µM [cytotoxic, single point]"
15,OCc1ccc(-c2nn(Cc3ccccc3)c3ccccc23)o1,"inconclusive: 20.9 µM [cytotoxic, single point]"
16,CC(CN1c2ccccc2Sc2ccccc21)N(C)C (centres undefined),"inconclusive: 13.3 µM [cytotoxic, partial curve, poor fit]"
17,CCc1ccc(C(=O)C(C)CN2CCCCC2)cc1 (centres undefined),inactive
18,Cc1ccc(NC(=O)Nc2cc(C(F)(F)F)ccc2F)cc1Nc1ccc2c(c1)NC(=O)C2=Cc1ccc[nH]1,"inconclusive: 14.8 µM [cytotoxic, partial curve]"
19,CCN1CCC[C@H]1CNC(=O)c1c(OC)ccc(Br)c1OC,inactive
20,CC(=O)OCC(=O)NCCCOc1cccc(CN2CCCCC2)c1,inactive

row,Compound,Potency
1,CC(C[N+](C)(C)C)OC(N)=O (centres undefined),"inconclusive: 18.7 µM [cytotoxic, partial curve]"
2,CC(=O)[C@]1(O)Cc2c(O)c3c(c(O)c2[C@@H](O[C@H]2C[C@H](N)[C@H](O)[C@H](C)O2)C1)C(=O)c1ccccc1C3=O,active: 0.841 µM
3,Nc1ccc(C(=O)Nc2ccccc2N)cc1,"inconclusive: 13.3 µM [cytotoxic, partial curve]"
4,CN(C(=O)CCCOc1ccc2[nH]c(=O)ccc2c1)C1CCCCC1,"inconclusive: 13.3 µM [cytotoxic, partial curve, poor fit]"
5,COc1cc(N2CCC(C(N)=O)CC2)ccc1Nc1nc(N)c(Cl)c(Nc2ccccc2S(=O)(=O)C(C)C)n1,active: 0.59 µM
6,CCN(CC)C(=O)/C(C#N)=C/c1cc(O)c(O)c([N+](=O)[O-])c1,inactive
7,c1ccc(CNc2nc(NCc3ccccc3)c3ccccc3n2)cc1,active: 18.7 µM
8,OCC(O)C(O)C(O)CO (centres undefined),inactive
9,CCN(CC)C(C)CN1c2ccccc2Sc2ccccc21 (centres undefined),inactive
10,COc1ccc(C2CNC(=O)C2)cc1OC1CCCC1 (centres undefined),inactive
11,CCCc1nc(C)c2c(=O)[nH]c(-c3cc(S(=O)(=O)N4CCN(CC)CC4)ccc3OCC)nn12,"inconclusive: 15 µM [cytotoxic, single point]"
12,CCCCCCCCCCCCCCCC[N+](C)(C)CC,active: 13.3 µM
13,O[C@@H](CNC[C@H](O)[C@H]1CCc2cc(F)ccc2O1)[C@@H]1CCc2cc(F)ccc2O1,"inconclusive: 20.9 µM [cytotoxic, partial curve] and inconclusive: 29.9 µM [cytotoxic, single point]"
14,CC(C)(C)CC(C)(C)c1ccc(OCCOCC[N+](C)(C)Cc2ccccc2)cc1,active: 16.8 µM
15,N#Cc1c(O)c2c(-c3ccc(-c4ccccc4O)cc3)csc2[nH]c1=O,"inconclusive: 4.18 µM [cytotoxic, partial curve]"
16,C=C(CC)C(=O)c1ccc(OCC(=O)O)c(Cl)c1Cl,"inconclusive: 18.8 µM [cytotoxic, partial curve]"
17,COc1ccc(CN2CCN(C(c3ccc(F)cc3)c3ccc(F)cc3)CC2)c(OC)c1OC,"inconclusive: 15 µM [cytotoxic, partial curve]"
18,CCOc1ccc(Cc2nccc3cc(OCC)c(OCC)cc23)cc1OCC,"inconclusive: 15 µM [cytotoxic, single point]"
19,Nc1nc(Nc2ccc(S(N)(=O)=O)cc2)nn1C(=O)c1c(F)cccc1F,active: 14.8 µM

# Shown bar-delimited: entries from further up
row | Compound | Potency
11 | CCCc1nc(C)c2c(=O)[nH]c(-c3cc(S(=O)(=O)N4CCN(CC)CC4)ccc3OCC)nn12 | inconclusive: 15 µM [cytotoxic, single point]
12 | CCCCCCCCCCCCCCCC[N+](C)(C)CC | active: 13.3 µM
13 | O[C@@H](CNC[C@H](O)[C@H]1CCc2cc(F)ccc2O1)[C@@H]1CCc2cc(F)ccc2O1 | inconclusive: 20.9 µM [cytotoxic, partial curve] and inconclusive: 29.9 µM [cytotoxic, single point]
